Test results reported in patent US20250000944A1, “USE OF RECOMBINANT CALRETICULIN IN HAIR GROWTH, HAIR BREEDING, HAIR PROTECTION OR ANTI-HAIR LOSS AND RELATED PRODUCT” (BEIJING YITUBAIHUI BIOTECH CO., LTD, priority 2021, published 2025).
At least one compound was matched to its structure with a doubt left.

How the values were obtained:
[1] = tested on: mice with androgenic alopecia; assay: Second experiment: testosterone hair loss model, hair growth, skin blackness, scanning electron microscopy and hair follicle count; format: in vivo, C57BL/6 male mice; conditions: Day 10; compared with the model group
Experimental: Experimental animals: C57BL/6 male mice, 6-7 weeks old, weighing (20±2) g, were provided by Beijing Vital River Laboratory Animal Technology Co. Ltd., with the animal license number of SCXK (Beijing) 2021-0006. They were kept in a 12 h light/12 h dark environment, with free access to food and water. The mice were divided into normal control group (normal group, NC), model group (Model), experimental group C (rh-CRT-2, with a concentration of 0.35 mg/ml) including an injection group and an external application group, experimental group D (rh-CRT-3, with a concentration of 0.21 mg/ml) including an injection group and external application group, and positive control-minoxidil group (Minoxidil). The proteins were stored in a −70° C. refrigerator and diluted with physiological saline when used. There were 6 mice in each group.
Modeling and drug administration: First, the hair loss model was established. One day before the modeling, the hair in the center of the back of the experimental animal was removed with a skin preparation knife, and the prepared skin area was depilated with a depilatory cream. […] The hair follicles in different areas were observed under an optical microscope, and the number of hair follicles was statistically analyzed. […]
Statistical analysis: All data were processed using SPSS 17.0 software. […] Data were expressed as mean±standard deviation (x±s). […]

[2] = tested on: androgenic alopecia model; assay: First experiment: testosterone-induced androgenic alopecia model, hair observed by dermatoscope and scanning electron microscopy; format: in vivo, C57BL/6 male mice; conditions: 21 days; compared with the model group (frizzy hair); proteins 0.21 mg/ml injected on the back once a day; minoxidil 5% external; finasteride 13 μg/mL
Experimental: Experimental animals: C57BL/6 male mice, 6-7 weeks old, weighing (20±2) g, were provided by Beijing Vital River Laboratory Animal Technology Co. Ltd., with the animal license number of SCXK (Beijing) 2021-0006. They were kept in a 12 h light/12 h dark environment, with free access to food and water. The mice were divided into normal NC group (NC), model group (Model), positive control-minoxidil group (Minoxidil), positive control-finasteride group (Finasteride), experimental group A and experimental group B. The proteins were stored in a −70° C. refrigerator and diluted with physiological saline when used. Experimental group A used rh-CRT-1, with a concentration of 0.21 mg/ml. Experimental group B used rh-CRT-2, with a concentration of 0.21 mg/ml. There were 6 mice in each group.
The main reagents used are as follows: 4% paraformaldehyde (Beijing Solarbio Technology Co., Ltd., China), isoflurane (Rayward, China), testosterone (Shanghai Standard Biotechnology Co., Ltd., China), paraffin sectioner (Thermo, USA), small animal anesthesia machine (Rayward, China), and inverted microscope (Olympus, Japan).
Modeling and drug administration: First, the androgenic alopecia model was established. One day before the modeling, the hair in the central part of the back of the experimental animal was removed with a skin preparation knife, and the prepared area was depilated with a depilatory cream. […]

[3] = tested on: AGA (androgenic alopecia) model mice; assay: Third experiment: hair growth score in DHT-induced AGA model mice; format: in vivo, C57BL/6N male mice; conditions: Day 17; external application 100 μL; CRT 0.35 mg/ml, MNX 5 mg/ml; P<0.05
Experimental: C57BL/6N male mice, 6-7 weeks old, weighing (18-20) g, 50 mice, with the animal license number of SCXK (Beijing) 2021-0006, were kept in a 12 h light/12 h dark environment, with free access to food and water. Adaptive feeding was performed for about 1 week.
The hair in an area of about 2 cm×3 cm at the border of the spine was shaved using an electric shaver. The depilatory area was applied with 8% sodium sulfide solution. After 90±10 s, the depilatory area on the back was cleaned with cotton balls dipped in water, the residual sodium sulfide was washed away with a washing bottle, and then the mice were wiped dry. Because the hair follicle cycle of mice was in the resting phase at this time, the mouse skin was pink. Mice were randomly divided into groups using Excel software, 10 mice in each group, and the modeling was established after 24 h and the drug was administered for 17 consecutive days. The AGA model was established by injecting dihydrotestosterone into the experimental mice. Dihydrotestosterone (DHT) solution was injected subcutaneously at multiple points every day, 100 μL/mouse (5 mg/kg body weight), and then the drug was administered after 3 h of absorption. […]
The skin color changes of mice were observed before administration every day. […] The hair growth of each mouse was recorded and analyzed on Day 7, Day 9, Day 11, Day 13, Day 15, and Day 17.

[4] = tested on: AGA (androgen alopecia) model mice; assay: Fourth experiment: hair growth score in DHT-induced AGA model mice; format: in vivo, C57BL/6N male mice; conditions: Day 17; external application 100 μL; CRT 0.35 mg/ml, MNX 5 mg/ml; P<0.05
Experimental: The experimental animals were the same as in the third experiment.
The AGA model was established in the same manner as the third experiment, and the administration was carried out as follows: The AGA model was established by injecting dihydrotestosterone into the experimental mice. Dihydrotestosterone (DHT) solution was injected subcutaneously at multiple points every day, 100 μL/mouse (5 mg/kg body weight), and then the drug was administered after 3 h of absorption. CRT-3 and CRT-1 protein solutions were applied externally. 100 μL of protein solution was applied, and 100 μl of minoxidil MNX was applied. The solvent formula comprised 50% ethanol, 20% propylene glycol, and 30% pure water.
The scoring criteria and scoring process were the same as those in the third experiment.

Nc1cc(N2CCCCC2)nc(N)[n+]1[O-] [minoxidil, reference compound]
blackness of the back skin (color tester) [1]: significantly increased | changes in hair observed by dermatoscope [2]: smooth hair | hair growth score compared with the Model group [3]: significantly higher | hair growth score compared with the Model group [4]: significantly higher
